## Primary screen of a compound library

Amino acid sequences for entries named in this document (tags omitted).
UniProt E9BF75, entry or part of it: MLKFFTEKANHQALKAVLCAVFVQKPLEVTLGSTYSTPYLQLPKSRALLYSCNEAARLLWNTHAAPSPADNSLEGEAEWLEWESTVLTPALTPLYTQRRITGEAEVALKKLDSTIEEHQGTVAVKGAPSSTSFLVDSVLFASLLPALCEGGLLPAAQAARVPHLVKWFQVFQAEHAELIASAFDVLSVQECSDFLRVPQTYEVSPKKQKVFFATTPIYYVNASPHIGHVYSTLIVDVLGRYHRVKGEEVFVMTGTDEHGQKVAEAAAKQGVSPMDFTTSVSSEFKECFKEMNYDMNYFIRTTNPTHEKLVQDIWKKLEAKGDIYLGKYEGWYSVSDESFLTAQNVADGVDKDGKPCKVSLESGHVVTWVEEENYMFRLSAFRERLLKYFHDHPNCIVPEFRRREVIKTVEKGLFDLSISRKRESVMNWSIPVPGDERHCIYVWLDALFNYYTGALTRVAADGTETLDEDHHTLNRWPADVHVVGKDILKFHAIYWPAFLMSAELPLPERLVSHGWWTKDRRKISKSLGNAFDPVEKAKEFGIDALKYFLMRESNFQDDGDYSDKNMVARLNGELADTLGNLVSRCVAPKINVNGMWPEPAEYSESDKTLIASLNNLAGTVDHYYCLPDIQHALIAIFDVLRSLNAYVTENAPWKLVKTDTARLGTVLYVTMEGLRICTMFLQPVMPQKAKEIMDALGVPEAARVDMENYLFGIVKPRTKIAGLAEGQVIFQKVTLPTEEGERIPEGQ

Data taken from ChEMBL document CHEMBL3988442, “University of Dundee, Small-Polar-MMV Screening Library” (2021).

A: 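Methionyl-tRNA synthetase (putative), Leishmania donovani (UniProt E9BF75). Primary screen of methionyl-tRNA synthetase; the read-out is not stated. The test concentration is not given. Values are per cent inhibition. About 68,000 compounds were tested under these conditions; 0.035% (about 24) showed 50% or more at least once.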
B: 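Assay on Mycobacterium tuberculosis, filed only as a heat shock assay from Cornell; the read-out is not stated. The concentration is filed as 10 mM, unlikely as a test dose, so the dose is not known. Higher reads as stronger inhibition (inferred: compounds with an IC50 in retests scored well above the rest). Size under these conditions: about 69,000 compounds, about 930 of them at 50% or above in at least one test.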

All values are in %.
The controls that fix the scale are not given in the record; negative values are as filed.
Compounds were drawn at random from those tested, without regard to their results.

Compound: Cc1noc([C@@H](C)NCc2ccc(F)cc2)c1C(=O)O.Cl
B: -39.44

Compound: O=C1N(c2ccc(F)cc2)Cc2nc(=O)n(Cc3cccc(Cl)c3)n21
A: 8.714
B: 12.27

Compound: CCOCC1CCCN(C(=O)NCc2cn3c(C)cccc3n2)C1 (centres unmarked)
A: 5.46
B: 6.097

Compound: CCc1ccccc1OCCN(C)C(=O)CCN1CCCCO1
A: 12.54
B: 8.701

Compound: CCOc1ccc(OCc2nc3c(c(=O)[nH]2)CCNC3)cc1
A: 18.27
B: -0.07647

Compound: CC(C)NC(=O)Nc1ccc(CNCc2cccc(OC(F)F)c2)cc1
A: 4.53
B: 15.34

Compound: Cc1ccc(C(=O)N2CC[C@@H]3CN(C4CCOCC4)CCO[C@@H]3C2)o1
A: 13.49

Compound: Cc1cc(C)n(-c2cncc(NCCNC(=O)c3cccnc3)n2)n1
A: 19.83
B: 6.983

Compound: CC(C)CS(=O)(=O)N1C[C@H]2C[C@H](C(=O)N3CCCC3)[C@@H](C1)O2
A: 13.11

Compound: CCC(CO)NCc1ccc(-c2ccccc2F)o1 (centres unmarked)
A: 22.11
B: -8.099

Compound: O=C(NCc1ccc2c(c1)CCCO2)c1cn2c(n1)CNCC2
A: 9.317
B: -10.25

Compound: CNC(=O)C1CN(c2ccc(F)cc2)CCN1.Cl (centres unmarked)
B: -9.726

Compound: O=C(Nc1ccc2c(c1)OC1(CCCC1)O2)c1ccc(=O)[nH]n1
A: 3.43
B: 10.5

Compound: c1ccc(Cn2cc(CNc3ncnc4c3CCNCC4)cn2)cc1
A: 5.376
B: -2.636

Compound: CC(=O)N1CCN(C(=O)c2cnn(-c3ccccc3Cl)c2)CC1
A: 14.38
B: 12.11

Compound: N#Cc1ncn(CCS(=O)(=O)c2ccc(Br)cc2)n1
A: -5.163
B: -7.527

Compound: Cc1cnccc1CN(C)C(=O)c1cccc(CCC(C)(C)O)c1
A: -1.676
B: 2.102

Compound: Cc1ccc(C)n1-c1c(C(=O)NCC(c2ccsc2)N(C)C)cnn1C (centres unmarked)
A: 8.163
B: -29.64

Compound: CN1CCc2cc(C(CNS(=O)(=O)c3cccs3)N3CCCC3)ccc21 (centres unmarked)
A: 12.75
B: -15.26

Compound: COc1cc(C(=O)N(Cc2cnn(C)c2)C(C)C)ccc1OCC(N)=O
A: 11.02
B: 12.67

Compound: Cc1cnn(CC2CN(Cc3nc4ccccc4o3)CCO2)c1 (centres unmarked)
A: 16.57
B: 1.829

Compound: CCCS(=O)(=O)N1C[C@@H]2COC[C@@H](Cc3nc(C)no3)[C@@H]2C1
A: 12.89

Compound: CCN(CCO)C(=O)C1CCC(=O)N(CCc2cccc(F)c2)C1 (centres unmarked)
A: 6.774
B: 16.87

Compound: O=C1CNc2ncnc(Nc3cccc(Cn4cccn4)c3)c2N1
A: 10.22
B: -0.5352

Compound: CC(C)N(Cc1ccccn1)C(=O)CN(C)C(=O)c1cccs1
A: 11.15
B: -33.84

Compound: CN1CCN(C2CCN(C(C(N)=O)c3ccccc3)CC2)C1=O (centres unmarked)
A: 11.68
B: 0.3879

Some entries from above, unchanged:

- CCc1ccccc1OCCN(C)C(=O)CCN1CCCCO1 | A: 12.54%; B: 8.701%
- CCC(CO)NCc1ccc(-c2ccccc2F)o1 (centres unmarked) | A: 22.11%; B: -8.099%
- O=C1N(c2ccc(F)cc2)Cc2nc(=O)n(Cc3cccc(Cl)c3)n21 | A: 8.714%; B: 12.27%